Taken from: PubChem BioAssay AID602196 (INSERM, 2012)
Here is one part, drawn at random, of about 23,000 reagents. 455 of them (2%) count as active. 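Active includes both protection and sensitisation; some change values fall well beyond the stated -50 to +50 range.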 Entries without a mark were called inactive. Not all columns of the deposit are shown. The record does not give: the amount of reagent.

- Screen: 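Genes whose knock-down alters cisplatin killing of lung cancer cells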
- Cells: human A549 lung cancer cells
- Reagents: siRNA pair against human genes
- Duration: 48 h transfection before cisplatin; time from cisplatin to read-out not stated
- Challenge: cisplatin at a dose killing half of control-siRNA cells; exact dose and duration not given
- Read-out: 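Shift in cisplatin death relative to control siRNA, from -50 (all cells die) to +50 (no cells die); siRNAs harmful on their own scored 0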
- Direction: two-siRNA summed score (-2 to +2): higher = both siRNAs protect from cisplatin killing; -2 means both sensitise; mean protection from cisplatin (shift in death): higher = protection from cisplatin killing
- Active means: 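siRNAs harmful alone (LDH or WST-1) get 0; others get +1 for less and -1 for more cisplatin killing; genes are active when the two siRNAs give the same sign, summing to ±2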
- Meaning of the calls: active = both siRNAs shift cisplatin killing the same way; inactive = no consistent shift, or siRNA harmful alone

With PEX2 (peroxisomal biogenesis factor 2), what was measured?
two-siRNA summed score (-2 to +2): 0; mean protection from cisplatin (shift in death) (%): -5.1

For LY6E (lymphocyte antigen 6 family member E), what was measured?
two-siRNA summed score (-2 to +2): 0; mean protection from cisplatin (shift in death) (%): 17.6

What did the screen give for KCTD6 (potassium channel tetramerization domain containing 6)?
two-siRNA summed score (-2 to +2): 0; mean protection from cisplatin (shift in death) (%): 5.2

Which result is listed for OR13H1 (olfactory receptor family 13 subfamily H member 1)?
two-siRNA summed score (-2 to +2): 1; mean protection from cisplatin (shift in death) (%): 12.9

What is on record for HDAC8 (histone deacetylase 8)?
two-siRNA summed score (-2 to +2): 0; mean protection from cisplatin (shift in death) (%): -8.7

What is on record for MGC57820?
two-siRNA summed score (-2 to +2): 0; mean protection from cisplatin (shift in death) (%): 6.8

With PPDPFL, what was measured?
two-siRNA summed score (-2 to +2): 0; mean protection from cisplatin (shift in death) (%): 24.3

What is on record for OR1G1 (olfactory receptor family 1 subfamily G member 1)?
two-siRNA summed score (-2 to +2): 0; mean protection from cisplatin (shift in death) (%): 0.7

For PPP4C (protein phosphatase 4 catalytic subunit), how do the results read?
two-siRNA summed score (-2 to +2): 0; mean protection from cisplatin (shift in death) (%): 0.7

With LOC400961, what does the deposit list?
two-siRNA summed score (-2 to +2): 0; mean protection from cisplatin (shift in death) (%): 5.3

For COPZ1 (coat protein complex I subunit zeta 1), what does the deposit list?
two-siRNA summed score (-2 to +2): 0; mean protection from cisplatin (shift in death) (%): 3.7

Which result is listed for LOC389669?
two-siRNA summed score (-2 to +2): 0; mean protection from cisplatin (shift in death) (%): 6.2

What is on record for MAFA (MAF bZIP transcription factor A)?
two-siRNA summed score (-2 to +2): 0; mean protection from cisplatin (shift in death) (%): -2.9

For LOC440964, what was measured?
two-siRNA summed score (-2 to +2): 1; mean protection from cisplatin (shift in death) (%): 10.9

A portion of the results above, as a working copy:
PEX2 (peroxisomal biogenesis factor 2) → two-siRNA summed score (-2 to +2) = 0; mean protection from cisplatin (shift in death) (%) = -5.1
LY6E (lymphocyte antigen 6 family member E) → two-siRNA summed score (-2 to +2) = 0; mean protection from cisplatin (shift in death) (%) = 17.6

Next records:
For APOLD1 (apolipoprotein L domain containing 1), what was measured?
two-siRNA summed score (-2 to +2): -1; mean protection from cisplatin (shift in death) (%): -2.7

What did the screen give for ROPN1 (rhophilin associated tail protein 1)?
two-siRNA summed score (-2 to +2): 0; mean protection from cisplatin (shift in death) (%): 5

How did the screen score PRM1 (protamine 1)?
two-siRNA summed score (-2 to +2): 0; mean protection from cisplatin (shift in death) (%): 13.8

With GABBR1 (gamma-aminobutyric acid type B receptor subunit 1), how do the results read?
two-siRNA summed score (-2 to +2): 0; mean protection from cisplatin (shift in death) (%): 3.8

With LMOD1 (leiomodin 1), what does the deposit list?
two-siRNA summed score (-2 to +2): 0; mean protection from cisplatin (shift in death) (%): 0

With TMEM70 (transmembrane protein 70), how do the results read?
two-siRNA summed score (-2 to +2): 0; mean protection from cisplatin (shift in death) (%): 2

What did the screen give for VPS33A (VPS33A core subunit of CORVET and HOPS complexes)?
two-siRNA summed score (-2 to +2): 0; mean protection from cisplatin (shift in death) (%): 9.2
